Binding data for 4 molecules are collected here from paper PMC6211770, “Structure-guided disruption of the pseudopilus tip complex inhibits the Type II secretion in Pseudomonas aeruginosa” (PLoS Pathogens, 2018).

Results are given in words; binding and its absence hold for the method and conditions named.

Assay in all cases: SEC; each minor pseudopilin alone after removal of the Trx tag, Superdex 75, Buffer C (25 mM HEPES pH 7.0, 150 mM NaCl); both purified
A general note: Size exclusion chromatography separates by hydrodynamic size, large species first.

For assay [1], the target named is XcpV (28–129), soluble form (P. aeruginosa) (UniProt Q00516).
For assay [2], the target named is XcpW (28–203), soluble form (P. aeruginosa) (UniProt Q00517).
For assay [3], the target named is XcpU (29–172), soluble form (P. aeruginosa) (UniProt Q00515).
The target of assay [4] is XcpX (29–313), soluble form (P. aeruginosa) (UniProt Q00518).

B1: XcpV (28–129), soluble form (domain or fragment)
chain: SASARSLQNASRLEDKTLAMWIADNRLNELQLEQTPPSSGRNQGELEFAGRRWEWRTQVDSTAEQDMRRVIVWVAAKPLGRERGSIEERAAARLVGFLGSQP
notes: minor pseudopilin XcpV (GspI) of Pseudomonas aeruginosa, soluble form, residues 28-129; The XcpVWX complex was digested in situ with chymotrypsin before crystallisation; the chains in PDB 5VTM may be shorter; also called XcpV^(GspI); GspI; source: E. coli BL21 (DE3), purified (Ni2+-NTA, TEV digestion, Superdex 75); not shown: thioredoxin (Trx), N-terminal, cleaved
As to B1, the binding entry in assay [1] is recorded as “no binding”.

B2: XcpW (28–203), soluble form (domain or fragment, UniProt Q00517 28-203)
chain: RMFDSVMQTDQATRVQEQRMRELVRAMGALERDLTQAVERPVRDELGDNRGAFLSEGENDQIVEFTRGGWRNPLGQARSRLQRVRWSLSGETLERRYWLVLDRAQDSKPRVQQVLDGVTALSWRFLDKEHNWQGHWPTDEGSEEERLESLPLAVEMTLEHRHYGKLVRVWRLLDPP
As for B2, the binding entry in assay [2] was “no binding”.

B3: XcpU (29–172), soluble form (domain or fragment, UniProt Q00515 29-172)
chain: STGFASTSRELDSEAERLAGLIGVLTDEAVLDNREYGLRLERDAYQVLRYDEAKARWLPVARDSHRLPEWAELTFELDGQPLVLAGSKGEKEQKKGTDQPQLLILSSGELSPFRLRLAERGPEGRALSLSSDGFRLPRVEVARR
Turning to B3, in assay [3], the binding result is “no binding”.

B4: XcpX (29–313), soluble form (domain or fragment, UniProt Q00518 29-313)
chain: IRQQLAIRSSANQLHVRQAWHYALGGERLAEAVLRRDLRQGGENTREPVDHLGEAWARPMTPFKLDDGGELRVRIEDPSGRFNLNGLVRKRKVKPDSVKQFRRLLATLGMKEEIVQGLPDRLADWLDADQNPQGEQGAEDNQYLLEAPAYRAANRSFKDVSELRLLKLSEADYRRLLPFVSALPEDAPLNVNTASVPVLAAMFEIDPGQAENIVDARGREGFQSKDDFTKHLTQLGSKTGNVSYAVGTRYFQVISEVSLGDRRQVLVSTLQRGKDGKIRVMARDM
Consider B4, for which the binding result in assay [4] is given as “no binding”.
